{"sequences": {"note": "Sequences of proteins named here, by UniProt entry; tags and fusion partners are left off. A change or cut given only in a name is not applied to a line headed by its entry. Residues count along the entry.", "UniProt Q8N122, whole entry, looked up": "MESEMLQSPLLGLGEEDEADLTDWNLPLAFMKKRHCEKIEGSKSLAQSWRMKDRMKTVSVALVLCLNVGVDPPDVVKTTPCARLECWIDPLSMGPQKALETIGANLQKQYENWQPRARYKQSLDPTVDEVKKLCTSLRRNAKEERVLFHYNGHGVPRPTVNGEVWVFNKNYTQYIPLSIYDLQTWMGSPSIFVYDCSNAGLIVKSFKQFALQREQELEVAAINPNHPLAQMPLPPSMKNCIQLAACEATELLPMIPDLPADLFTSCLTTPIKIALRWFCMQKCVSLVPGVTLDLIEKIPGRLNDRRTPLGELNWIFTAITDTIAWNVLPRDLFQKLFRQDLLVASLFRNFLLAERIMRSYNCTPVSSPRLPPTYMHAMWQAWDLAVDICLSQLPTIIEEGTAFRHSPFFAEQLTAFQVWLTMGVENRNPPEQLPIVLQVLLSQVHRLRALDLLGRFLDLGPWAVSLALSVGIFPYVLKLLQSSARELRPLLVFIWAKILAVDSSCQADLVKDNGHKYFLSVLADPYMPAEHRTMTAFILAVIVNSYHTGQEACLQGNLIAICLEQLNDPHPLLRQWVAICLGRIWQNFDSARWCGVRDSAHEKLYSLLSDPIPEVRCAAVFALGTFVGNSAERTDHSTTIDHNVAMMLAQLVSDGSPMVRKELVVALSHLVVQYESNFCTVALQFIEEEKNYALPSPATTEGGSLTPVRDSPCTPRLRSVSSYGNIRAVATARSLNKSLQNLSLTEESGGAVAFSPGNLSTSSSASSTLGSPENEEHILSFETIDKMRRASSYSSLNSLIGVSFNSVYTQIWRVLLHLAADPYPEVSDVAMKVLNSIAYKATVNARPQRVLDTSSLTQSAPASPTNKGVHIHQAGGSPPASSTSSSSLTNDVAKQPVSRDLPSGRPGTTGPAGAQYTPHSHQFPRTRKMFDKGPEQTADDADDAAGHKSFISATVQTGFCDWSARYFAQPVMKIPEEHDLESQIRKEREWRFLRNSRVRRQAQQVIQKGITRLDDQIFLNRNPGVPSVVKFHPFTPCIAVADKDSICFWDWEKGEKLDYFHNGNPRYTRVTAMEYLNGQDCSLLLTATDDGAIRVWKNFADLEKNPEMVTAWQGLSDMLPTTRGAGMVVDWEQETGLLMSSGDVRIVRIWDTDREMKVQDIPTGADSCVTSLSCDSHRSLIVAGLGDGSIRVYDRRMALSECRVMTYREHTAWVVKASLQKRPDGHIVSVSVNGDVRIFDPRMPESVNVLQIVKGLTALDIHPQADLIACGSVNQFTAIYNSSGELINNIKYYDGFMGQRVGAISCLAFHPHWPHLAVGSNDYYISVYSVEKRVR", "UniProt P13489": "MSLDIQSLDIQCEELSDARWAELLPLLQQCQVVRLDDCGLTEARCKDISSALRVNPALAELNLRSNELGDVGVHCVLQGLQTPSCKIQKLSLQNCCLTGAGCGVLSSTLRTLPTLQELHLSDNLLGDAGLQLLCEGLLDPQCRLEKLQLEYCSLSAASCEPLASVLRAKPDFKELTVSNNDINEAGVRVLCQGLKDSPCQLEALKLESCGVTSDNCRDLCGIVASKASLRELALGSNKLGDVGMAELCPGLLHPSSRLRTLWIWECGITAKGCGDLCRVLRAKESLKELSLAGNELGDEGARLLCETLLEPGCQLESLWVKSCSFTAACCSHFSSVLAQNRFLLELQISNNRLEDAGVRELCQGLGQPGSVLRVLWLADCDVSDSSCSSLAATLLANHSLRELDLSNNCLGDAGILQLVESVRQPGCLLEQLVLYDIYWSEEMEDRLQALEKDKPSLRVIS", "UniProt Q9NZJ4": "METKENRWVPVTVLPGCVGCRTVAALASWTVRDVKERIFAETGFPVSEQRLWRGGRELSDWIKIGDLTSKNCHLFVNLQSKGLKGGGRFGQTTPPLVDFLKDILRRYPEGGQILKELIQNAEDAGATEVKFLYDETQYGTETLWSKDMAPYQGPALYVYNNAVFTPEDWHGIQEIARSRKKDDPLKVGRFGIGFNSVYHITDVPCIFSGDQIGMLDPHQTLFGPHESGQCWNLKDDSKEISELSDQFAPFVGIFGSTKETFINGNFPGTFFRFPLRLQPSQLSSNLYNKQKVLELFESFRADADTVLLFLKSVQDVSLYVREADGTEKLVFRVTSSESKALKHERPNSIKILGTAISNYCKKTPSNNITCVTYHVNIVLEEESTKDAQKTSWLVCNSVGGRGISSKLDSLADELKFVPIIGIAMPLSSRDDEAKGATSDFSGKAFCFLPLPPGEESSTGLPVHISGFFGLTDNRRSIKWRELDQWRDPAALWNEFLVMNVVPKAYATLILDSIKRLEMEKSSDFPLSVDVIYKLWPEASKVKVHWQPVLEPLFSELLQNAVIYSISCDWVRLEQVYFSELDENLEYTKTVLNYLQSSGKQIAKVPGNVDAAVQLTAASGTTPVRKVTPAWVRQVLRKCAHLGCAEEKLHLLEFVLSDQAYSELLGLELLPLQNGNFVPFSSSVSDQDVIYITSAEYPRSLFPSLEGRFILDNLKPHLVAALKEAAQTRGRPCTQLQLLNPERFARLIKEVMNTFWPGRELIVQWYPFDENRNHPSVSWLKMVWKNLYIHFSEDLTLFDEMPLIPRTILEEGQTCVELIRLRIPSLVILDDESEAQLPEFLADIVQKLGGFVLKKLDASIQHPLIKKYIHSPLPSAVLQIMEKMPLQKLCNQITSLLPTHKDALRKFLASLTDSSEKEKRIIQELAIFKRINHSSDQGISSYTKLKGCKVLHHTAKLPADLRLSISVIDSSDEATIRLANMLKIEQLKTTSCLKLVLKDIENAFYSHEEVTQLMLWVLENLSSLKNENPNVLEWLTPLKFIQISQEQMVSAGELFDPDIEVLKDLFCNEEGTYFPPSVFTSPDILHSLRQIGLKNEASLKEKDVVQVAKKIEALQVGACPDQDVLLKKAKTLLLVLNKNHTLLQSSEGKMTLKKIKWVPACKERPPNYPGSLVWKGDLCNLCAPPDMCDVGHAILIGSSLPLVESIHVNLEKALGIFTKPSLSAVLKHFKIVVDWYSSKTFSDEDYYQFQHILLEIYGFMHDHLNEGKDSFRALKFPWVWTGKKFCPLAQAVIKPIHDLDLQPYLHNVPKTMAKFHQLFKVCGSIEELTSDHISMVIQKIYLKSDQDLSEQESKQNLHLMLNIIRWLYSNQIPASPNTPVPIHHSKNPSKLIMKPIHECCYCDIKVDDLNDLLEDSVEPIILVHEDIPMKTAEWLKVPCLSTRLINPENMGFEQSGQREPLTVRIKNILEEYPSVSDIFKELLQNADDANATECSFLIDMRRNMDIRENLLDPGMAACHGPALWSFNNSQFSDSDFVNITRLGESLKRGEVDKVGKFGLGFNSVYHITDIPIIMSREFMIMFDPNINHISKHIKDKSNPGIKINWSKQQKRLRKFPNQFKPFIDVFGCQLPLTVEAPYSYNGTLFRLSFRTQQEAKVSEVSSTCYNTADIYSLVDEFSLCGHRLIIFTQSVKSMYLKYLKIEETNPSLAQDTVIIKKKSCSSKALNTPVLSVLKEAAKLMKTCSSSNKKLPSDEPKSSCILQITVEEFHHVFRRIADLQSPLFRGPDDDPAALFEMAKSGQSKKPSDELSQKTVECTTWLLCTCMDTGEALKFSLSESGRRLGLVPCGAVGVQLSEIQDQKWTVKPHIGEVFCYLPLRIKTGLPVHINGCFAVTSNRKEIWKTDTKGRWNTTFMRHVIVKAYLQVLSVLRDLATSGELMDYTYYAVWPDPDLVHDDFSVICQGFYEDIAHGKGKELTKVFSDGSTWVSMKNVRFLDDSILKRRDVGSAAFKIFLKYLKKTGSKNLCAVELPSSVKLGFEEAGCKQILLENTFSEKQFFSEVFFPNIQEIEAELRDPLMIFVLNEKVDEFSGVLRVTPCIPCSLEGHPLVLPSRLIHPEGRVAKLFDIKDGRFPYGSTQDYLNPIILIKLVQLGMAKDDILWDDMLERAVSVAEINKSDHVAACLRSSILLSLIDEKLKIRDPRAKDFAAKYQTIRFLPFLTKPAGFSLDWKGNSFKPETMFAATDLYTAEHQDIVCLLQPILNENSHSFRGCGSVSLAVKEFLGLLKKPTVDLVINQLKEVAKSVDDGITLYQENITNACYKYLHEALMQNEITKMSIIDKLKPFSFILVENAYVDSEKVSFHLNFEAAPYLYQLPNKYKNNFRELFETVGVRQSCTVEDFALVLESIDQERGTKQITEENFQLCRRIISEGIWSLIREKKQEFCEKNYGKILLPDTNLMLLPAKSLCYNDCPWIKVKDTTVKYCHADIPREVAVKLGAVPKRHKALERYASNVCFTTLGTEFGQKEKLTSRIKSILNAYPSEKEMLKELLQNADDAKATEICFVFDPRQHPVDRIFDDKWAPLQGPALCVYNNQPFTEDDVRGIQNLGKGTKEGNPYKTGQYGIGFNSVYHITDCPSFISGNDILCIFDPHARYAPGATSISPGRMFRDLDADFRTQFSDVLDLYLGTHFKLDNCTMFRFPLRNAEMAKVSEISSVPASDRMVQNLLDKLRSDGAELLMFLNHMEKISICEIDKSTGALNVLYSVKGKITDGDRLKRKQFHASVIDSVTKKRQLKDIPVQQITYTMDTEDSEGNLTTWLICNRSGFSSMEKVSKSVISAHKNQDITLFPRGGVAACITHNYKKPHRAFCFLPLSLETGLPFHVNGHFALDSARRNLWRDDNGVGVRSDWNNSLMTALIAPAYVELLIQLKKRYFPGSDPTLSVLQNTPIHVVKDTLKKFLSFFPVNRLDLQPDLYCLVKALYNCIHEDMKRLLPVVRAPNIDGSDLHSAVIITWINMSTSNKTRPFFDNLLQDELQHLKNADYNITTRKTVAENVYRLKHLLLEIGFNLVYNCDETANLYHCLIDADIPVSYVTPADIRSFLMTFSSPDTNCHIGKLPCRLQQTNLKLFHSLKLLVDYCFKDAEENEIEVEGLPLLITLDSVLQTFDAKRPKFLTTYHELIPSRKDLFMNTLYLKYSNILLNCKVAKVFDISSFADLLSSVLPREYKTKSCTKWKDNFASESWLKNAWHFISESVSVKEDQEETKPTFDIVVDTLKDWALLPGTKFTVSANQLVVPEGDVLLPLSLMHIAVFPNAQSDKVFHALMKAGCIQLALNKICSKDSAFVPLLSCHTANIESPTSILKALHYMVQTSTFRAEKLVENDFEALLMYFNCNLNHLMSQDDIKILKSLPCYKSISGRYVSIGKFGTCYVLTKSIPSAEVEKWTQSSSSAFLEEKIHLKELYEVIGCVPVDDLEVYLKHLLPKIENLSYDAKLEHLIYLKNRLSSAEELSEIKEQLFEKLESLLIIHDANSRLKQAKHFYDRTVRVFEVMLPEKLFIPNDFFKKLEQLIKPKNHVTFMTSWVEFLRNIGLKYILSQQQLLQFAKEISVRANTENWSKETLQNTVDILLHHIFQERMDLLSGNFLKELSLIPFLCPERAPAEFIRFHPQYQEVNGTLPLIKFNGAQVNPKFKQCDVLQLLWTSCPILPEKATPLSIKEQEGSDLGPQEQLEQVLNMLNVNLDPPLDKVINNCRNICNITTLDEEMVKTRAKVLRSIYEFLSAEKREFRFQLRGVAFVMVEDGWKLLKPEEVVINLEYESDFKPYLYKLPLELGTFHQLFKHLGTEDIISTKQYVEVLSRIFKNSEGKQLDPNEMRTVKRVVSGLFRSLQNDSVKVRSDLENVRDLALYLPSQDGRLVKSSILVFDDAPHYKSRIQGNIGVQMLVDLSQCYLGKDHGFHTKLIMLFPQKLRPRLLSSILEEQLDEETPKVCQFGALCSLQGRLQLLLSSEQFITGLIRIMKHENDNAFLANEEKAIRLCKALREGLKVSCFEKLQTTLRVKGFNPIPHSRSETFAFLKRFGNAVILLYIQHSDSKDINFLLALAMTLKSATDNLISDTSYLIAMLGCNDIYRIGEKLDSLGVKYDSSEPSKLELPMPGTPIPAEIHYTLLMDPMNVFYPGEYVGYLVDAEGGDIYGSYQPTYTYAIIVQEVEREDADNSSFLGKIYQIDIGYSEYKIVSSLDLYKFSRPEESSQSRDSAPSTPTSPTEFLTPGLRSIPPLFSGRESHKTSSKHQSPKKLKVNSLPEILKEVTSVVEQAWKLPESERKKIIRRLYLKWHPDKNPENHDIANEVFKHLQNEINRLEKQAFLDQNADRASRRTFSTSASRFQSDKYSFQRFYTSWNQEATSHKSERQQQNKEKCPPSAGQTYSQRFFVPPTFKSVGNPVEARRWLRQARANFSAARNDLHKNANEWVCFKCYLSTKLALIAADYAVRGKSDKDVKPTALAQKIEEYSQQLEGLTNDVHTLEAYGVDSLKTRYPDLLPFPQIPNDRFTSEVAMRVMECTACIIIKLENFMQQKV", "UniProt Q9UBF6, 2-23": "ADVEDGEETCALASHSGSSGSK", "UniProt Q99496, 162-196": "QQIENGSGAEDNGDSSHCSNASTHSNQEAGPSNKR"}, "source": "the supplement of paper PMC11732987", "about": "“Enantioselective OTUD7B fragment discovery through chemoproteomics screening and high-throughput optimisation” (Communications Chemistry, 2025)", "note": "The list shows a part of the results. The data scatter; read single values as rough."}
{"compound": "ClCC(=O)N[C@@H]1CCCc2ccccc12", "test": "log2 mean competition ratio of IA-DTB cysteine labelling (DMSO/compound) (log2 ratio); higher = stronger cysteine engagement by compound", "details": "50 µM; treatment time: 4 h; cell line lysate: HEK293T", "protocol": "(§1)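 IA-DTB competitive cysteine chemoproteomics in HEK293T RIPA lysate. Lysates were treated with compound 29 or 30 at 50 or 200 µM for 4 h, then IA-DTB (500 µM, 1 h), trypsin-digested, NeutrAvidin-enriched and analysed by diaPASEF. Competition ratio = intensity DMSO / intensity compound (n=4 treated, n=64 DMSO); binding: mean log2 CR ≥ 1 and p ≤ 0.05 plus QC filters. Target is the cysteine site.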"}
{"target": "RNF213 C1325", "log2 mean competition ratio": 0.06}
{"target": "RPL32 C96", "log2 mean competition ratio": 0.373}
{"target": "RPTOR C362 (UniProt Q8N122)", "log2 mean competition ratio": 0.283}
{"target": "RWDD3 C80 (UniProt Q9Y3V2)", "log2 mean competition ratio": -0.0222}
{"target": "RPL3 C114 (UniProt P39023)", "log2 mean competition ratio": 0.0296}
{"target": "RPA1 C323 (UniProt P27694)", "log2 mean competition ratio": -0.171}
{"target": "RPS6 C12 (UniProt P62753)", "log2 mean competition ratio": 0.375}
{"target": "RNF213 C3261", "log2 mean competition ratio": -0.133}
{"target": "RNF169 C337 (UniProt Q8NCN4)", "log2 mean competition ratio": 0.14}
{"target": "RUSF1 C201", "log2 mean competition ratio": 0.0984}
{"target": "RRBP1 C1216 (UniProt Q9P2E9)", "log2 mean competition ratio": 0.137}
{"target": "RNH1 C220 (UniProt P13489)", "log2 mean competition ratio": 0.255}
{"target": "RNF213 C614", "log2 mean competition ratio": 0.129}
{"target": "SACS C3756 (UniProt Q9NZJ4)", "log2 mean competition ratio": 0.539}
{"target": "RXRB C440 (UniProt P28702)", "log2 mean competition ratio": -0.0355}
{"target": "RPS3 C97", "log2 mean competition ratio": 0.0225}
{"target": "RPAP3 C519 (UniProt Q9H6T3)", "log2 mean competition ratio": -0.0978}
{"target": "RNPEP C181 (UniProt Q9H4A4)", "log2 mean competition ratio": -0.133}
{"target": "RNMT C206 (UniProt O43148)", "log2 mean competition ratio": -0.118}
{"target": "RPAP1 C618 (UniProt Q9BWH6)", "log2 mean competition ratio": 0.388}
{"target": "RPL4 C208 (UniProt P36578)", "log2 mean competition ratio": 0.331}
{"target": "RNF7 C11 (UniProt Q9UBF6)", "log2 mean competition ratio": -0.405}
{"target": "RUVBL2 C227 (UniProt Q9Y230)", "log2 mean competition ratio": -0.179}
{"target": "SACS C814 (UniProt Q9NZJ4)", "log2 mean competition ratio": -0.493}
{"target": "RNF14 C350 (UniProt Q9UBS8)", "log2 mean competition ratio": 0.402}
{"target": "RPL24 C36 (UniProt P83731)", "log2 mean competition ratio": 0.231}
{"target": "RNF10 C483 (UniProt Q8N5U6)", "log2 mean competition ratio": -0.33}
{"target": "RTN4 C1101", "log2 mean competition ratio": 0.338}
{"target": "RNF168 C348 (UniProt Q8IYW5)", "log2 mean competition ratio": 0.0717}
{"target": "RPP25 C70 (UniProt Q9BUL9)", "log2 mean competition ratio": 0.492}
{"target": "RPLP0 C27", "log2 mean competition ratio": 0.241}
{"target": "RRP1 C274 (UniProt P56182)", "log2 mean competition ratio": -0.0067}
{"target": "ROR1 C482", "log2 mean competition ratio": -0.121}
{"target": "RNH1 C38 (UniProt P13489)", "log2 mean competition ratio": -0.146}
{"target": "RPTOR C1202 (UniProt Q8N122)", "log2 mean competition ratio": 0.0469}
{"target": "RPRD1B C234 (UniProt Q9NQG5)", "log2 mean competition ratio": -0.334}
{"target": "RNF2 C179 (UniProt Q99496)", "log2 mean competition ratio": -0.439}
{"compound": "ClCC(=O)N[C@@H]1CCCc2ccccc12", "test": "log2 mean competition ratio of IA-DTB cysteine labelling (DMSO/compound) (log2 ratio); higher = stronger cysteine engagement by compound", "details": "200 µM; treatment time: 4 h; cell line lysate: HEK293T", "protocol": "as §1"}
{"target": "RNF213 C1325", "log2 mean competition ratio": -0.0411}
{"target": "RPL32 C96", "log2 mean competition ratio": 0.0369}
{"target": "RPTOR C362 (UniProt Q8N122)", "log2 mean competition ratio": 0.0182}
{"target": "RWDD3 C80 (UniProt Q9Y3V2)", "log2 mean competition ratio": -0.196}
{"target": "RPL3 C114 (UniProt P39023)", "log2 mean competition ratio": -0.0217}
{"target": "RPA1 C323 (UniProt P27694)", "log2 mean competition ratio": 0.0811}
{"target": "RPS6 C12 (UniProt P62753)", "log2 mean competition ratio": -0.0735}
{"target": "RNF213 C3261", "log2 mean competition ratio": -0.253}
{"target": "RNF169 C337 (UniProt Q8NCN4)", "log2 mean competition ratio": 0.273}
{"target": "RUSF1 C201", "log2 mean competition ratio": -0.0619}
{"target": "RRBP1 C1216 (UniProt Q9P2E9)", "log2 mean competition ratio": -0.161}
{"target": "RNH1 C220 (UniProt P13489)", "log2 mean competition ratio": -0.225}
{"target": "RNF213 C614", "log2 mean competition ratio": 1.01}
{"target": "SACS C3756 (UniProt Q9NZJ4)", "log2 mean competition ratio": -0.191}
{"target": "RXRB C440 (UniProt P28702)", "log2 mean competition ratio": 0.408}
{"target": "RPS3 C97", "log2 mean competition ratio": -0.101}
{"target": "RPAP3 C519 (UniProt Q9H6T3)", "log2 mean competition ratio": -0.00452}
{"target": "RNPEP C181 (UniProt Q9H4A4)", "log2 mean competition ratio": 0.265}
{"target": "RNMT C206 (UniProt O43148)", "log2 mean competition ratio": 0.187}
{"target": "RPAP1 C618 (UniProt Q9BWH6)", "log2 mean competition ratio": 0.454}
{"target": "RPL4 C208 (UniProt P36578)", "log2 mean competition ratio": 0.124}
{"target": "RNF7 C11 (UniProt Q9UBF6)", "log2 mean competition ratio": -0.114}
{"target": "RUVBL2 C227 (UniProt Q9Y230)", "log2 mean competition ratio": -0.169}
{"target": "SACS C814 (UniProt Q9NZJ4)", "log2 mean competition ratio": -0.346}
{"target": "RNF14 C350 (UniProt Q9UBS8)", "log2 mean competition ratio": -0.0498}
{"target": "RPL24 C36 (UniProt P83731)", "log2 mean competition ratio": -0.056}
{"target": "RNF10 C483 (UniProt Q8N5U6)", "log2 mean competition ratio": -0.373}
{"target": "RTN4 C1101", "log2 mean competition ratio": -0.115}
{"target": "RNF168 C348 (UniProt Q8IYW5)", "log2 mean competition ratio": 0.0176}
{"target": "RPP25 C70 (UniProt Q9BUL9)", "log2 mean competition ratio": 0.12}
{"target": "RPLP0 C27", "log2 mean competition ratio": -0.343}
{"target": "RRP1 C274 (UniProt P56182)", "log2 mean competition ratio": 0.0774}
{"target": "ROR1 C482", "log2 mean competition ratio": -0.112}
{"target": "RNH1 C38 (UniProt P13489)", "log2 mean competition ratio": 0.0646}
{"target": "RPTOR C1202 (UniProt Q8N122)", "log2 mean competition ratio": 0.0459}
{"target": "RPRD1B C234 (UniProt Q9NQG5)", "log2 mean competition ratio": -0.0948}
{"target": "RNF2 C179 (UniProt Q99496)", "log2 mean competition ratio": -0.0689}
